PubChem BioAssay AID2551 (National Center for Advancing Translational Sciences (NCATS), 2010)
About 17,000 (5.5%) of roughly 310,000 compounds were called active. Inconclusive means that the source gave no clear call. Such entries were picked first, then a sample of the others. Calls come from the whole dose curve; as a rule, active = well fitted inhibition curve with a large enough effect; inconclusive = small, poorly fitted or top-dose-only effect, or effect the other way; inactive = no such curve, though single readings can be large or run the other way. Where the call is inconclusive, the potency comes from a doubtful curve fit.

Sequences of proteins named here, by UniProt entry; tags and fusion partners are left off. A change or cut given only in a name is not applied to a line headed by its entry.
UniProt P51450: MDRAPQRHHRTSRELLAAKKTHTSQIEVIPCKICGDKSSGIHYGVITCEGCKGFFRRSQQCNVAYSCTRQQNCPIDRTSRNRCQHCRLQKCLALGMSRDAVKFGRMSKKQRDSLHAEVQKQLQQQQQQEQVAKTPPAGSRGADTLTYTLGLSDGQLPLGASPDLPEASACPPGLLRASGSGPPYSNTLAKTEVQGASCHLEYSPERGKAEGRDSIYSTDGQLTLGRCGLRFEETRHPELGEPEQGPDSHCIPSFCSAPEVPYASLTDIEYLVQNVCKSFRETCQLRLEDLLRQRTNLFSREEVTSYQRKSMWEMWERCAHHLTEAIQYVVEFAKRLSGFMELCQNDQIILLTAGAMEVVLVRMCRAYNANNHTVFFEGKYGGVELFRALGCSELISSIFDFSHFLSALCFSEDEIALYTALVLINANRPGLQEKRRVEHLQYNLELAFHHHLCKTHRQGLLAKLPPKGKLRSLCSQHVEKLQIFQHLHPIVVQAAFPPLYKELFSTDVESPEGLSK

Molecular target: Nuclear receptor ROR-gamma (Mus musculus) (UniProt P51450)
Assay: qHTS for inhibitors of ROR gamma transcriptional activity; note: nearly all actives have a fitted effect of over 60% in size
Conditions: Drosophila S2 Gal4-RORgamma UAS-luciferase reporter, 20 h; series mostly up to 53.6 µM
Procedure, shortened: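 Stable Schneider cell line, Gal4 DNA-binding domain fused to ROR gamma, UAS-luciferase. Cmpd 1 hr RT → CuSO4 700 uM final → 20 hr RT → luciferase reagent 10 min → luminescence.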
Potency is the fitted concentration of half-maximal effect.

Potency, inactive:
CCCC(=O)N(CC(=O)Nc1sc(C)c(C)c1C(N)=O)Cc1ccccc1
Cc1c(C)c2c(c(C)c1OC(=O)CCC(=O)O)CC[C@@](C)(CCC[C@H](C)CCC[C@H](C)CCCC(C)C)O2
Nc1c(C(=O)N2CCCCC2)sc(=S)n1-c1ccccc1
COc1cc(C2NC(=O)NC(c3ccccc3)=C2C(C)=O)c(Cl)cc1OCC(=O)O (stereo unspecified)
COc1cc(Cl)c(C)cc1NC(=O)Cc1ccc(OC)c(OC)c1
CCOC(=O)c1cnc2cc(C)nn2c1C
COc1ccc2ccccc2c1CN(C)Cc1ccccc1
O=C(O)c1ccc(/C=N/Nc2nc(N3CCCCC3)nc(N3CCCCC3)n2)cc1
Cc1ccc(NC(=O)CSc2nnc3c(n2)[nH]c2ccccc23)cc1
CCCCCN(C(=O)CCC(=O)OCc1ccccc1Cl)c1c(N)n(CCCC)c(=O)[nH]c1=O
COc1ccccc1Nc1nn2c(=O)c3ccc(C(=O)N4CCC(C)CC4)cc3nc2s1
CCOc1cc(C(=O)Nc2cc(C)ccc2OC)ccc1OCC(=O)N1CCCCC1
Cc1ccc(NC(=O)NCCCN2CCCC2=O)cc1C
CN(C)c1ncc2ncc(=O)n(C3CC3)c2n1
CC(C)CCCC(C)CCCC(C)CCCC(C)C(=O)O (stereo unspecified)
COc1ccc(/C=C2\N=C(C)OC2=O)cc1OC
Cc1ccc(C(=O)N/C(=C\c2cccs2)C(=O)N2CCOCC2)cc1C
NC[C@@H](O)c1ccc(O)c(O)c1
COc1ccccc1Oc1ccc(S(=O)(=O)NCc2ccccn2)cc1

Potency, active:
CC(C)N(Cc1nc(-c2ccc(Cl)cc2)no1)Cc1nccn1C 5.01 µM
O=C(Nc1nc2ccccc2s1)C1c2ccccc2Oc2ccccc21 11.2 µM
Cc1ccc(O)c(/C=N/NC(=O)C2=NNC(c3ccccc3)(c3ccccc3)C2)c1 1.41 µM
C=CCn1c(CCc2cc(C(C)(C)C)c(O)c(C(C)(C)C)c2)n[nH]c1=S 2.51 µM
Cc1ccc(N=Cc2cccc(O)c2O)c(C)c1 10 µM
CCN(CC)c1ccc(N=Cc2cc(Br)ccc2O)cc1 17.8 µM
O=C(N/N=C\c1cn(-c2ccccc2)nc1-c1ccccc1)c1ccc2c(c1)OCO2 1.78 µM
CCOC(=O)N1CCN(C(=S)NC(=O)c2ccc(F)c(F)c2)CC1 0.631 µM
COc1cccc(/C=N/NC(=O)CCc2c(C)n[nH]c2C)c1O 1.41 µM
COc1cc(OC)cc(C(=O)Nc2ccc(-c3nc4ccccc4o3)c(O)c2)c1 11.2 µM

An excerpt from the list above:
Potency, active:
C=CCn1c(CCc2cc(C(C)(C)C)c(O)c(C(C)(C)C)c2)n[nH]c1=S 2.51 µM
Cc1ccc(N=Cc2cccc(O)c2O)c(C)c1 10 µM
CCN(CC)c1ccc(N=Cc2cc(Br)ccc2O)cc1 17.8 µM
O=C(N/N=C\c1cn(-c2ccccc2)nc1-c1ccccc1)c1ccc2c(c1)OCO2 1.78 µM

Following part.

Potency, inconclusive:
CC(Sc1ccc2ccccc2n1)C(=O)O (stereo unspecified) 11.2 µM [inhibitor, partial curve]
Cc1ccc(Nc2nnns2)cc1C 17.8 µM [inhibitor, single point]
CCCCCC(=O)O[C@]1(C(C)=O)CC[C@H]2[C@@H]3CCC4=CC(=O)CC[C@]4(C)[C@H]3CC[C@@]21C 35.5 µM [activator, single point]
Cc1noc(C)c1/C=N/Nc1ccccn1 8.91 µM [inhibitor, single point]
CC(=O)Oc1ccc(N(C(C)=O)S(=O)(=O)c2ccc(C)cc2C)c2ccccc12 17.8 µM [inhibitor, single point]
O=S(=O)(c1ccc(C2CCCCC2)cc1)N1CCOCC1 35.5 µM [activator, single point]
O=C(NCc1ccc(F)cc1)C1CCCN(S(=O)(=O)c2ccc(Br)s2)C1 (stereo unspecified) 35.5 µM [activator, single point]
Cc1ccc(Cn2nc(C)c(NC(=O)c3cc(-c4ccc5c(c4)OCO5)on3)c2C)cc1 35.5 µM [inhibitor, single point]
Cc1cc(C(=O)CSc2nnc(-c3ccco3)o2)c(C)n1-c1ccc2c(c1)OCCO2 14.1 µM [activator, partial curve]
COc1ccc(/C=N/Nc2nc(NCc3ccco3)nc(Nc3ccc(OC)cc3)n2)cc1 12.6 µM [inhibitor, partial curve, poor fit]
COC(=O)CN1C(=O)C(C)(C)Oc2ccc(C(=O)Nc3cccc(OC)c3)cc21 11.2 µM [activator, partial curve]
CCCCNC(=O)CCC(=O)NNc1nc2ccccc2c2nc(-c3ccccc3)nn12 11.2 µM [activator, partial curve]
O=C(/C=N/NC(=O)c1ccccc1Br)c1ccccc1 35.5 µM [inhibitor, single point]
CCOC(=O)C1CCN(C(=O)Nc2ccc3nc(-c4ccco4)c(-c4ccco4)nc3c2)CC1 2.82 µM [inhibitor, partial curve]
O=C(O)c1cccc(S(=O)(=O)Nc2cccc3ccccc23)c1 11.2 µM [inhibitor, single point]
Cc1cc(OCc2ccc(C(=O)n3cccn3)o2)ccc1Cl 1 µM [inhibitor, partial curve]
COc1ccccc1NS(=O)(=O)c1cccc(NC(=O)Nc2ccccc2)c1 25.1 µM [activator, single point]
COc1ccccc1NC(=O)N(Cc1ccco1)Cc1cc2cc(C)cc(C)c2[nH]c1=O 14.1 µM [activator, single point]
O=C(Cn1nnc(-c2ccccc2)n1)N1CCN(S(=O)(=O)c2ccc(Cl)cc2)CC1 12.6 µM [activator, single point]
Cc1nc2scc(C)n2c(=O)c1S(=O)(=O)NCc1ccccc1Cl 3.55 µM [inhibitor, partial curve, poor fit]
Cn1c(SCCOc2ccccc2Cl)nnc1-c1cccs1 0.708 µM [activator, single point]
Cc1[nH]c(=O)c(C(=O)/C=C/c2ccccc2)c2c1CCCC2 7.08 µM [inhibitor, full curve, poor fit]
COCc1cc(Sc2cccc(Cl)c2Cl)nc(-c2ccccc2)n1 35.5 µM [activator, partial curve]
CC(=O)c1cccc(NC2c3ncccc3C(=O)N2Cc2ccco2)c1 (stereo unspecified) 7.94 µM [activator, partial curve]
O=S(=O)(Nc1ccc(-c2csc(-c3ccccc3)n2)cc1)c1ccc(F)cc1 31.6 µM [inhibitor, single point]
COc1cc2nc(CN3CCN(C(c4ccccc4)c4ccccc4)CC3)[nH]c(=O)c2cc1OC 10 µM [activator, single point]
COc1ccc(CN(C2CCCC2)S(=O)(=O)c2ccc(-n3cnnn3)cc2)cc1OC 22.4 µM [activator, single point]
Cc1occc(=O)c1OC(=O)Nc1ccc(Cl)c(Cl)c1 17.8 µM [activator, single point]
CCn1c(SCC(=O)c2ccc(Cl)cc2)nnc1-c1ccoc1C 31.6 µM [inhibitor, single point]
COc1ccc(/C=C/C(=O)Nn2cnnc2)cc1 4.47 µM [inhibitor, full curve, poor fit]
O=C(Nc1cccc(C(=O)Nc2ccccc2F)c1)c1ccccc1 35.5 µM [activator, single point]
N#C/C(=C\c1ccc(Oc2ccc(C(F)(F)F)cc2[N+](=O)[O-])cc1)c1nc2ccccc2[nH]1 22.4 µM [activator, partial curve]
Cn1cc(/C=N/NC(N)=S)c2ccccc21 35.5 µM [inhibitor, single point]
CCOC(=O)C1=C(C)NC(C)=C(C(=O)OCC)C1c1ccccn1 17.8 µM [inhibitor, partial curve, poor fit]
COc1cc(/C=C2\SC(=O)N(CC(=O)Nc3ccccc3F)C2=O)cc(Cl)c1O 12.6 µM [activator, partial curve, poor fit]
Cc1ccc(C(=O)OC/C(O)=C(\C#N)c2nc3ccccc3[nH]2)cc1S(=O)(=O)N1CCOCC1 17.8 µM [inhibitor, single point]
O=C(NC(=S)NNS(=O)(=O)c1ccccc1)c1cccnc1 11.2 µM [inhibitor, partial curve]
Cc1ccc(S(=O)(=O)NCCC(=O)Nc2ccc(Cl)c(Cl)c2)cc1C 12.6 µM [activator, partial curve]
CCc1cc2cc(C)c(C)cc2nc1SCC(=O)NNC(=O)c1ccco1 11.2 µM [inhibitor, partial curve]
Cc1ccc(C(=O)OCC(=O)c2c(N)n(C)c(=O)n(C)c2=O)cc1S(=O)(=O)N1CCCCC1 20 µM [activator, single point]
O=C(NCc1ccccn1)C1CCN(Cc2cnn(-c3ccccc3)c2-n2cccc2)CC1 6.31 µM [inhibitor, single point]
CS(=O)(=O)N(CC(=O)Nc1ccc2c(c1)OCCO2)Cc1ccc(Cl)cc1 10 µM [activator, partial curve, poor fit]
